# Measurements published in the supplement of paper PMC10849652.
# By UniProt entry, the sequences of proteins in these tests, tags left out. Where a name states a change or a piece, a line headed by the entry shows the natural chain unless it says otherwise.
# UniProt Q9NW68: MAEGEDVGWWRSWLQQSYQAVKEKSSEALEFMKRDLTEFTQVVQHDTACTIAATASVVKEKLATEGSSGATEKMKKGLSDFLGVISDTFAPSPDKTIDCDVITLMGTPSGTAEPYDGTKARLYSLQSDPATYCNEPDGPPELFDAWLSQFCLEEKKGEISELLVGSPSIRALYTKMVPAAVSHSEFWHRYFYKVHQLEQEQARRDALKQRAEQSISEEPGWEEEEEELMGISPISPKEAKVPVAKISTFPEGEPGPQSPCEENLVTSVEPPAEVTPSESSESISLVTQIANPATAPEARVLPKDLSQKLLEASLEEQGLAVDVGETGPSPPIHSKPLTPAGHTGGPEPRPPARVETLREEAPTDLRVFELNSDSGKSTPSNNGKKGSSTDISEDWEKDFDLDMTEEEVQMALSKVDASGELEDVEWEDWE
# UniProt Q15059, whole entry, looked up: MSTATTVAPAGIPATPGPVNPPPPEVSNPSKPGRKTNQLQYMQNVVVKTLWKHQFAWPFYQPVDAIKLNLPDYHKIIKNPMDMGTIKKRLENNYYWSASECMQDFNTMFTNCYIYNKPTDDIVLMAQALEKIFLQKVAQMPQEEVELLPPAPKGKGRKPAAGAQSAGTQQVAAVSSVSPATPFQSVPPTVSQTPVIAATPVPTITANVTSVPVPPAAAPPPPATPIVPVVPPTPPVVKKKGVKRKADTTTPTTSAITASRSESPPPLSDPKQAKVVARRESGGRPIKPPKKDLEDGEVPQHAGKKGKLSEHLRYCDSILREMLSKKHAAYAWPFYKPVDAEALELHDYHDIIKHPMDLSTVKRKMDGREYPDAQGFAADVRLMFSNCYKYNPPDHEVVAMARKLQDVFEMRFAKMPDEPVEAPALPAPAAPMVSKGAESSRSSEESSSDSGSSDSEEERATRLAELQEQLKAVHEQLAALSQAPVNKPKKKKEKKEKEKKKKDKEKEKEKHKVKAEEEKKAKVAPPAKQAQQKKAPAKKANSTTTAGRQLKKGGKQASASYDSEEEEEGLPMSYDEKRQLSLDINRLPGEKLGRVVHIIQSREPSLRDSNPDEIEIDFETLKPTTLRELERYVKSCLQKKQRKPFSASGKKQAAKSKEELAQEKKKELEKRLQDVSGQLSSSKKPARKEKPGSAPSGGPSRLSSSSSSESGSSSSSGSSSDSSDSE
# UniProt P54687: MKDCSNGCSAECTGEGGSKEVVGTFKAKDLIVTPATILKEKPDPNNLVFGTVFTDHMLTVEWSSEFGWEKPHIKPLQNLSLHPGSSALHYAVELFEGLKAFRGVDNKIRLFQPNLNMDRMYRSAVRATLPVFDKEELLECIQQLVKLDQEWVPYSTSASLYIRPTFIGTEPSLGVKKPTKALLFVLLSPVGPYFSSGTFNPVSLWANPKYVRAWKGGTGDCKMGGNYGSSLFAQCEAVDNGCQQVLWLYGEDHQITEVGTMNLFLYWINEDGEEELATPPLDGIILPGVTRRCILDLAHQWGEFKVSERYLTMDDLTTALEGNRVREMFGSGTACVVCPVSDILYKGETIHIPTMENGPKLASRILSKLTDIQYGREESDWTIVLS
# UniProt P78537: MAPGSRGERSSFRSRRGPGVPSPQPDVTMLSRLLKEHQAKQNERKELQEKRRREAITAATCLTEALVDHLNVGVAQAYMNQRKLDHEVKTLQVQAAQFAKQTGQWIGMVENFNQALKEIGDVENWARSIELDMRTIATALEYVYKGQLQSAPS
# UniProt Q96GS4: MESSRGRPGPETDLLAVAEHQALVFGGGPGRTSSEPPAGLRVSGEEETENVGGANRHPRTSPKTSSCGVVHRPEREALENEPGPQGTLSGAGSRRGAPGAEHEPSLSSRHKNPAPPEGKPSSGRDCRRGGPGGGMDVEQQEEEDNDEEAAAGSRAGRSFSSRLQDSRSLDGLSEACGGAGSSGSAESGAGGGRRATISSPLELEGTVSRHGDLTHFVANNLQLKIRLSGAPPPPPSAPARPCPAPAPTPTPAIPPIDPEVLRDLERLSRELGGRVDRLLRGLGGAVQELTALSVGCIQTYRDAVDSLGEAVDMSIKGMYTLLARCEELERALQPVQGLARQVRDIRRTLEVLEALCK
# UniProt Q07812, whole entry, looked up: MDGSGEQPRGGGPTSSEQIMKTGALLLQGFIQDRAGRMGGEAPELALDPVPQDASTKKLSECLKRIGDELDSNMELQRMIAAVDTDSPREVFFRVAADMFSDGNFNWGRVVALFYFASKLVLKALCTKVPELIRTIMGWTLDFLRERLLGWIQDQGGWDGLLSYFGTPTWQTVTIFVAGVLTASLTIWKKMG
# UniProt Q7KYR7: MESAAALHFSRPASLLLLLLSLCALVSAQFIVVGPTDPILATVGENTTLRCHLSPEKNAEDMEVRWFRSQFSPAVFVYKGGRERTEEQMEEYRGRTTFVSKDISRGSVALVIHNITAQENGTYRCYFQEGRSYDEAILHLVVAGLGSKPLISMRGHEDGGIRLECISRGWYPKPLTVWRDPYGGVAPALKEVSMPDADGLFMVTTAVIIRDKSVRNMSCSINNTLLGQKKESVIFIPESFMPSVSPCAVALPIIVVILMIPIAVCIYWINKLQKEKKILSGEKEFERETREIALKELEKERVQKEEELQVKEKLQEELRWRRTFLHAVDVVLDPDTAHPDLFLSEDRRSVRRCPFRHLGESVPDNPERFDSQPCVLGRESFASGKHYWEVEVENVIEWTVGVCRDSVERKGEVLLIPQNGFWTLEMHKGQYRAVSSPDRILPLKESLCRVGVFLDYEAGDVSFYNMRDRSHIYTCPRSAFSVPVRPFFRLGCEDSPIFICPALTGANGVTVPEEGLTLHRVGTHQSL
# UniProt P51572: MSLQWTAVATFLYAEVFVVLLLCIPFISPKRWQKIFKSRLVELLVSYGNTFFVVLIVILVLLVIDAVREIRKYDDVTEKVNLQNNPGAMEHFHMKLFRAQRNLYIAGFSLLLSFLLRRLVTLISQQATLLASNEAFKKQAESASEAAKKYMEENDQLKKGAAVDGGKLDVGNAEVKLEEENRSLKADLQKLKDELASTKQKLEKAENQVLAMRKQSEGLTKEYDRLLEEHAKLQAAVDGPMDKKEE
# UniProt Q9BXH1: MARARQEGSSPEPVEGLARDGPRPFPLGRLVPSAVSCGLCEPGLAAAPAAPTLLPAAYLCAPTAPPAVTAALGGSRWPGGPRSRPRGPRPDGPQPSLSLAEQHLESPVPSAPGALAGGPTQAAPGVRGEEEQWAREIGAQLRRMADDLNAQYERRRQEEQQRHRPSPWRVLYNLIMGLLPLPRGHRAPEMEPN
# UniProt O75531: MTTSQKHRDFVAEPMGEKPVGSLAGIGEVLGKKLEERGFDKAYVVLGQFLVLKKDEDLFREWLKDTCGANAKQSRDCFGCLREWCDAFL
# UniProt Q9BUT1: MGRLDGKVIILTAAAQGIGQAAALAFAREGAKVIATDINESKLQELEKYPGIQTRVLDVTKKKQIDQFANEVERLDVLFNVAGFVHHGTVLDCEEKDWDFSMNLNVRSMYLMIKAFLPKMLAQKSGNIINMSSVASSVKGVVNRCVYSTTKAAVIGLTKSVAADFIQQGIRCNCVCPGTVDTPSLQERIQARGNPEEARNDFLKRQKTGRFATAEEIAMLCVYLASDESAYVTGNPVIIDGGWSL
# UniProt Q9H0C5: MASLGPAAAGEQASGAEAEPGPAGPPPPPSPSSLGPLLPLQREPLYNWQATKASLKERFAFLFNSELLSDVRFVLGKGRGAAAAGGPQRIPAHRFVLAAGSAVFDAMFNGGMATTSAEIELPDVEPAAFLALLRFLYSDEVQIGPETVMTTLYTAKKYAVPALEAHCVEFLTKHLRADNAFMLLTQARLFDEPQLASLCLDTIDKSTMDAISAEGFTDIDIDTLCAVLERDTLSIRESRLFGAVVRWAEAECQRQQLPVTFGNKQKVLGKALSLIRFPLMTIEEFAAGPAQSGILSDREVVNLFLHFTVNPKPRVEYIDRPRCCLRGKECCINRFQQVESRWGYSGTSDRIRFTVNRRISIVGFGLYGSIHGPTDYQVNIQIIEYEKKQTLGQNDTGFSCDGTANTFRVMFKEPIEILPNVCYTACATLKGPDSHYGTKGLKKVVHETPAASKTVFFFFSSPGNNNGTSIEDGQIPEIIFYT
# UniProt Q12983, whole entry, looked up: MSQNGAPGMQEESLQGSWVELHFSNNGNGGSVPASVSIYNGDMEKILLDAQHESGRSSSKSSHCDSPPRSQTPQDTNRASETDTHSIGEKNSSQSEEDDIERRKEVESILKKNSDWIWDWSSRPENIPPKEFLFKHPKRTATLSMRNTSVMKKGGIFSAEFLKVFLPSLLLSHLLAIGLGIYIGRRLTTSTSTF
# UniProt Q4VC05, whole entry, looked up: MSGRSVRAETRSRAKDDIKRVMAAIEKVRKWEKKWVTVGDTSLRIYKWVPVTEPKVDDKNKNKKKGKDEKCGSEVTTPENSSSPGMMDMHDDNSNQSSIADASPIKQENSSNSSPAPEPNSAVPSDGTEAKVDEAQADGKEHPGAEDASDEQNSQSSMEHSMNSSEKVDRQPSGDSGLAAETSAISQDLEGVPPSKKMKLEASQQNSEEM
# UniProt Q8IXM2, whole entry, looked up: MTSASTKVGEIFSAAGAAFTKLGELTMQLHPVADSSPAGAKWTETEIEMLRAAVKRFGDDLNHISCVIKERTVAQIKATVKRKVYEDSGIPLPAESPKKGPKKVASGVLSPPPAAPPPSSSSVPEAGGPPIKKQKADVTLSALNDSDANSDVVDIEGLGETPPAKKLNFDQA
# UniProt Q6PGQ7, whole entry, looked up: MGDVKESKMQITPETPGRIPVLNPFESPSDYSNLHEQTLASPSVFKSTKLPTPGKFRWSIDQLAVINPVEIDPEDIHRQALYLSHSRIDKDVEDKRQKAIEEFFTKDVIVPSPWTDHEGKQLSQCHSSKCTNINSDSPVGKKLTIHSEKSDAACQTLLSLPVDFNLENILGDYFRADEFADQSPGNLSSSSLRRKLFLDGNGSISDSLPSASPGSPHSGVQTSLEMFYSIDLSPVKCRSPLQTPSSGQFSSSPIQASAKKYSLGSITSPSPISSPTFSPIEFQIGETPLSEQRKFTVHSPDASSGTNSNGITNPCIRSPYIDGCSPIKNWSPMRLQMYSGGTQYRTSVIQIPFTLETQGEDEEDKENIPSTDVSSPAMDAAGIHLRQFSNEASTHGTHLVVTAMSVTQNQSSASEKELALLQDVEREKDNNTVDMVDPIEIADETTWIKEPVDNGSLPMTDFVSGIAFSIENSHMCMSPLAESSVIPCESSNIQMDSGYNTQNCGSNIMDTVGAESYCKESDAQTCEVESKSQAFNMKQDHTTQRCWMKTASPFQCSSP
# UniProt Q96B45: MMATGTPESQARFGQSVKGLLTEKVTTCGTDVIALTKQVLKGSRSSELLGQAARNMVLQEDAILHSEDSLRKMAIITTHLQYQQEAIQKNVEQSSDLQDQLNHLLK
# UniProt O43521, whole entry, looked up: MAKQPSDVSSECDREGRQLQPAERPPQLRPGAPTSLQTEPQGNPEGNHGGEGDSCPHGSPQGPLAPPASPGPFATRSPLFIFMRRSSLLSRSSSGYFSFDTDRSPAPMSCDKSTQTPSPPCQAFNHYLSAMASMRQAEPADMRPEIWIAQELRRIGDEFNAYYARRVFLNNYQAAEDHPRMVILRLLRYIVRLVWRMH
# UniProt O75363: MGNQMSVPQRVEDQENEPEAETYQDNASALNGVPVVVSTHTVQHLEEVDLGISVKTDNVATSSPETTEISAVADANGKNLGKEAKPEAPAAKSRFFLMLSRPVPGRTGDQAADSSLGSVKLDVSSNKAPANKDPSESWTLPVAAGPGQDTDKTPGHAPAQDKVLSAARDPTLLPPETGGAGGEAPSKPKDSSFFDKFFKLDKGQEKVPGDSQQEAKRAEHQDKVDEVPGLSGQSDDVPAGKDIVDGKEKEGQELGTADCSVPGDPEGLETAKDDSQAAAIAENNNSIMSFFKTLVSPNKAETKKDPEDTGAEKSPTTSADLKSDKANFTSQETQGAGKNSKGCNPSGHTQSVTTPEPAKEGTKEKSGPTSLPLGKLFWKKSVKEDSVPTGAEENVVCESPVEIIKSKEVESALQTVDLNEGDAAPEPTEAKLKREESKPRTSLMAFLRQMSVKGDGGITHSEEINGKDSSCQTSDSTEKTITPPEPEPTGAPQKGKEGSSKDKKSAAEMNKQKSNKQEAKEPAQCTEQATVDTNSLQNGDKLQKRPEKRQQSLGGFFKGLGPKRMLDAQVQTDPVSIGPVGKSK
# UniProt Q5PSV4: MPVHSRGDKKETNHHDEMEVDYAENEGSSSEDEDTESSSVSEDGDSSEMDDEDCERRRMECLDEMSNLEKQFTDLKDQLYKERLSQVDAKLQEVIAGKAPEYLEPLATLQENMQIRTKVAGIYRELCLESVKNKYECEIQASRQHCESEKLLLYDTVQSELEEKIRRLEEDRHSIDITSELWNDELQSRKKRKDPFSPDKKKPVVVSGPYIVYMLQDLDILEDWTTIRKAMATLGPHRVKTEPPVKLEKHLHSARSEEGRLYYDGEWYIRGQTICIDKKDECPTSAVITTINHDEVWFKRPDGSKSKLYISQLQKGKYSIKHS
# The list shows a part of the results.
# Assays:
# Assay in all cases: log2 fold change, soluble protein after heating vs DMSO (PISA); higher = thermal stabilisation; K562 lysate, 10 uM; active = over 0.2 and 3.5 SD of the protein, either way, in both replicates (recomputed)
# vemurafenib = compound: CCCS(=O)(=O)Nc1ccc(F)c(C(=O)c2c[nH]c3ncc(-c4ccc(Cl)cc4)cc23)c1F [vemurafenib]
# Summary of the method: (§1)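 Log-two fold change in thermal stability relative to solvent controls is reported from duplicates. For each sample, crude K562 extract from dounce-homogenised pellets in PBS pH 7.4 with 1 mM MgCl2, at 1 mg/mL protein, was treated with 10 μM compound for 30 min. Aliquots heated for 3 min across 48°C-58°C were pooled, brought to 0.5% NP-40 at 4°C and cleared at 21,000xg for 90 min. The supernatant was quantified by TMTpro 16plex LC-MS/MS with channel sums equalised.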
# [1] = compound: CCCS(=O)(=O)Nc1ccc(F)c(C(=O)c2c[nH]c3ncc(Cl)cc23)c1F
# Summary of the method: as §1
# barasertib = compound: CCN(CCCOc1ccc2c(Nc3cc(CC(=O)Nc4cccc(F)c4)[nH]n3)ncnc2c1)CCOP(=O)(O)O [barasertib]
# Summary of the method: as §1
# [2] = compound: CC[C@@H]1C(=O)N(C)c2cnc(Nc3ccc(C(=O)NC4CCN(C)CC4)cc3OC)nc2N1C1CCCC1
# Summary of the method: as §1
# volasertib = compound: CC[C@@H]1C(=O)N(C)c2cnc(Nc3ccc(C(=O)N[C@H]4CC[C@H](N5CCN(CC6CC6)CC5)CC4)cc3OC)nc2N1C(C)C [volasertib]
# Summary of the method: as §1
# [3] = compound: CCn1c(C(=O)N(C2CC2)C2CC2)cc2c3c(ncn3C)c(Nc3cc(C)n(C)n3)nc21
# Summary of the method: as §1
# [4] = compound: CCn1cc(-c2ccnc3[nH]c(-c4cccc(CN(C)C)c4)cc23)c(-c2ccc(NC(=O)N(C)C)cc2)n1
# Summary of the method: as §1
# [5] = compound: CN1CCC(CNc2ccc3ncc(-c4cccc(OC(F)(F)F)c4)n3n2)CC1
# Summary of the method: as §1
# saracatinib = compound: CN1CCN(CCOc2cc(OC3CCOCC3)c3c(Nc4c(Cl)ccc5c4OCO5)ncnc3c2)CC1 [saracatinib]
# Summary of the method: as §1
# sotrastaurin = compound: CN1CCN(c2nc(C3=C(c4c[nH]c5ccccc45)C(=O)NC3=O)c3ccccc3n2)CC1 [sotrastaurin]
# Summary of the method: as §1
Target,log2 fold change (vemurafenib),log2 fold change [1],log2 fold change (barasertib),log2 fold change [2],log2 fold change (volasertib),log2 fold change [3],log2 fold change [4],log2 fold change [5],log2 fold change (saracatinib),log2 fold change (sotrastaurin)
BSDC1 (UniProt Q9NW68),inactive: 0.027,inactive: 0.053,inactive: 0.078,inactive: 0.099,inactive: 0.018,inactive: -0.01,inactive: -0.027,inactive: 0.041,inactive: 0.03,inactive: -0.019
BCAP29 isoform 2 (UniProt Q9UHQ4),inactive: -0.011,inactive: -0.008,inactive: 0.068,inactive: 0.021,inactive: 0.024,inactive: 0.019,inactive: -0.005,inactive: 0.035,inactive: -0.019,inactive: -0.019
BRD3 (UniProt Q15059),inactive: -0.046,inactive: 0.038,inactive: -0.087,active: 0.451,inactive: 0.263,,inactive: -0.143,inactive: 0.188,inactive: 0.008,inactive: -0.082
BTF3 (UniProt P20290),inactive: -0.02,inactive: -0.008,inactive: -0.032,inactive: 0.018,inactive: 0.026,inactive: 0,inactive: -0.026,inactive: -0.162,inactive: 0.023,inactive: 0.014
BCAT1 (UniProt P54687),inactive: 0.024,inactive: 0.01,inactive: -0.038,inactive: 0.012,inactive: 0.006,inactive: 0.002,inactive: -0.066,inactive: 0.044,inactive: 0.004,inactive: -0.02
BLOC1S1 (UniProt P78537),inactive: 0.074,inactive: 0.003,inactive: 0.045,inactive: 0.027,inactive: 0.008,inactive: 0.055,inactive: -0.001,inactive: -0.003,inactive: 0.046,inactive: -0.011
BORCS6 (UniProt Q96GS4),inactive: -0.016,inactive: 0.001,inactive: 0.106,inactive: 0.116,inactive: 0.049,inactive: -0.054,inactive: 0.019,inactive: 0.107,inactive: 0.042,inactive: 0.024
BAX isoform 2 (UniProt Q07812),inactive: -0.003,inactive: -0.005,inactive: 0.118,inactive: -0.008,inactive: 0.021,inactive: -0.011,inactive: 0.036,inactive: -0.05,inactive: -0.002,inactive: 0.007
BCL9L (UniProt Q86UU0),inactive: -0.023,inactive: 0.038,inactive: -0.02,,inactive: 0.03,inactive: -0.055,inactive: 0.044,inactive: 0.058,inactive: 0.031,inactive: 0.016
BTN2A1 (UniProt Q7KYR7),inactive: 0.055,inactive: -0.063,inactive: 0.004,inactive: 0.224,inactive: 0.004,inactive: 0.043,inactive: -0.009,inactive: -0.036,inactive: -0.08,inactive: -0.084
BPGM (UniProt P07738),inactive: -0.001,inactive: -0.032,inactive: -0.039,inactive: -0.158,inactive: -0.04,inactive: 0.08,inactive: -0.019,inactive: -0.023,inactive: 0.002,inactive: 0.079
BRAT1 (UniProt Q6PJG6),inactive: 0.011,inactive: -0.014,inactive: 0.042,inactive: -0.086,inactive: -0.046,inactive: 0.055,inactive: -0.023,inactive: -0.007,inactive: 0.016,inactive: 0.037
BCAP31 isoform 2 (UniProt P51572),inactive: -0.003,inactive: -0.015,inactive: -0.027,inactive: 0.057,inactive: 0.042,inactive: 0.011,inactive: -0.038,inactive: 0.02,inactive: 0.011,inactive: -0.012
BBC3 (UniProt Q9BXH1),inactive: -0.218,inactive: -0.02,inactive: 0.118,inactive: 0.125,inactive: 0.015,inactive: 0.078,inactive: -0.131,inactive: 0.063,inactive: -0.032,inactive: -0.028
BID isoform 2 (UniProt P55957),inactive: 0.046,inactive: 0.014,inactive: 0.131,inactive: 0.039,inactive: 0.019,inactive: -0.033,inactive: 0.053,inactive: 0.018,inactive: 0.009,inactive: 0.032
BTK isoform 2 (UniProt Q06187),inactive: -0.014,inactive: 0.013,inactive: 0.128,,inactive: -0.106,inactive: 0.01,inactive: -0.147,inactive: 0.053,inactive: 0.058,inactive: -0.026
BANF1 (UniProt O75531),inactive: 0.178,inactive: -0.013,inactive: 0.035,inactive: -0.016,inactive: 0.045,inactive: 0.009,inactive: -0.065,inactive: 0,inactive: 0.004,inactive: -0.154
BDH2 (UniProt Q9BUT1),,inactive: 0.02,inactive: 0.016,inactive: 0.057,inactive: -0.039,inactive: -0.087,,,inactive: -0.009,inactive: -0.04

# Part of the list above, showing only log2 fold change (vemurafenib) and log2 fold change (barasertib):
Target,log2 fold change (vemurafenib),log2 fold change (barasertib)
BPGM (UniProt P07738),inactive: -0.001,inactive: -0.039
BRAT1 (UniProt Q6PJG6),inactive: 0.011,inactive: 0.042

# Next entries follow.

Target,log2 fold change (vemurafenib),log2 fold change [1],log2 fold change (barasertib),log2 fold change [2],log2 fold change (volasertib),log2 fold change [3],log2 fold change [4],log2 fold change [5],log2 fold change (saracatinib),log2 fold change (sotrastaurin)
BCL9 (UniProt O00512),inactive: -0.101,,inactive: 0.029,,,inactive: -0.266,inactive: -0.043,inactive: -0.079,,inactive: 0.016
BNIP2 (UniProt H7C096),,inactive: 0.082,inactive: 0.022,inactive: -0.072,inactive: 0.021,,inactive: -0.037,inactive: -0.027,,
BEND3 (UniProt Q5T5X7),inactive: -0.059,inactive: 0.035,,inactive: -0.145,inactive: -0.074,inactive: 0.029,inactive: -0.02,inactive: 0.077,inactive: 0.026,inactive: 0.067
BRIP1 (UniProt Q9BX63),inactive: -0.131,inactive: -0.016,,inactive: -0.225,inactive: 0.031,inactive: -0.066,inactive: -0.013,inactive: 0.024,inactive: -0.115,inactive: 0.059
BTBD1 (UniProt Q9H0C5),inactive: -0.061,,inactive: -0.174,inactive: 0.012,,,inactive: -0.02,inactive: 0.025,,
BNIP3 (UniProt Q12983),,inactive: 0.035,inactive: -0.037,inactive: 0.069,inactive: 0.116,inactive: -0.023,inactive: -0.307,inactive: 0.149,inactive: 0.118,inactive: 0.03
BCL7A (UniProt Q4VC05),,inactive: 0.062,inactive: 0.033,,inactive: 0.241,inactive: 0.026,inactive: -0.325,inactive: 0.024,inactive: 0.048,inactive: -0.085
BAP18 isoform 3 (UniProt Q8IXM2),inactive: -0.075,inactive: -0.012,,inactive: 0.227,inactive: 0.135,,inactive: 0.1,inactive: 0.109,,
BORA (UniProt Q6PGQ7),inactive: -0.056,,inactive: -0.031,inactive: 0.083,,inactive: -0.034,inactive: 0.228,inactive: 0.034,inactive: 0.066,inactive: -0.038
BCL7C (UniProt Q8WUZ0),,inactive: 0.042,inactive: 0.063,inactive: 0.098,inactive: 0.021,inactive: 0,inactive: -0.063,inactive: 0.024,inactive: 0.041,inactive: -0.013
BORCS7 (UniProt Q96B45),inactive: -0.039,inactive: 0.012,inactive: 0.18,,inactive: 0.048,,inactive: -0.004,inactive: -0.182,,inactive: 0.004
BCL2L11 (UniProt O43521),inactive: -0.004,,inactive: 0.447,,,,inactive: 0.04,inactive: -0.095,,inactive: -0.018
B4GALT7 (UniProt Q9UBV7),inactive: 0.193,,,inactive: 0.128,,,inactive: 0.329,inactive: -0.04,,inactive: 0.002
BBS7 (UniProt Q8IWZ6),inactive: 0.375,,,inactive: -0.082,,inactive: 0.026,inactive: -0.255,inactive: 0.067,inactive: 0.217,inactive: 0.044
BCAS1 isoform 2 (UniProt O75363),,inactive: 0.052,inactive: 0.022,inactive: -0.04,inactive: 0.204,inactive: 0.003,inactive: 0.048,inactive: 0.015,,inactive: 0.02
BRMS1L (UniProt Q5PSV4),inactive: 0.106,inactive: 0.133,,inactive: 0.096,inactive: -0.091,,,,,
BAG6 (UniProt F6WML8),inactive: 0.039,,,inactive: 0.12,,inactive: 0.013,,,,
BCORL1 isoform 3 (UniProt Q5H9F3),inactive: 0.123,,,inactive: -0.033,,inactive: -0.018,inactive: -0.546,inactive: 0.344,inactive: -0.082,inactive: -0.099
